From publication PMC10808547
No constants are given. Whether binding was seen depends on the method and setting. In cells and extracts the contact can be indirect. Some entries that bind do so weakly or less than the wild type.

Sequences of proteins named here, by UniProt entry; tags and fusion partners are left off.
UniProt Q9H1P3: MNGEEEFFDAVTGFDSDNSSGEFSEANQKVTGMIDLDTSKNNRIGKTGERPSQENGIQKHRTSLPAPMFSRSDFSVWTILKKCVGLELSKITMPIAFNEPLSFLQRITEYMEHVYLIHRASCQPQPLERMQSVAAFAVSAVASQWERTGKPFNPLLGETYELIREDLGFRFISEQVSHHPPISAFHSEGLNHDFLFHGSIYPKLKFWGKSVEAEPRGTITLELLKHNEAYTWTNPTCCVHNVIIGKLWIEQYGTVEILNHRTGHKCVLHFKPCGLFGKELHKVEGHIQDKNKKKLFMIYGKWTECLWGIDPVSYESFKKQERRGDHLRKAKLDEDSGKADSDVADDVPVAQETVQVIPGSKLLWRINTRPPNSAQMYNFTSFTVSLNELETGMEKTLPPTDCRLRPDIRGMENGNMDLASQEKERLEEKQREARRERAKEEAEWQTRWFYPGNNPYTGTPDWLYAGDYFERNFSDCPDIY
UniProt P09874: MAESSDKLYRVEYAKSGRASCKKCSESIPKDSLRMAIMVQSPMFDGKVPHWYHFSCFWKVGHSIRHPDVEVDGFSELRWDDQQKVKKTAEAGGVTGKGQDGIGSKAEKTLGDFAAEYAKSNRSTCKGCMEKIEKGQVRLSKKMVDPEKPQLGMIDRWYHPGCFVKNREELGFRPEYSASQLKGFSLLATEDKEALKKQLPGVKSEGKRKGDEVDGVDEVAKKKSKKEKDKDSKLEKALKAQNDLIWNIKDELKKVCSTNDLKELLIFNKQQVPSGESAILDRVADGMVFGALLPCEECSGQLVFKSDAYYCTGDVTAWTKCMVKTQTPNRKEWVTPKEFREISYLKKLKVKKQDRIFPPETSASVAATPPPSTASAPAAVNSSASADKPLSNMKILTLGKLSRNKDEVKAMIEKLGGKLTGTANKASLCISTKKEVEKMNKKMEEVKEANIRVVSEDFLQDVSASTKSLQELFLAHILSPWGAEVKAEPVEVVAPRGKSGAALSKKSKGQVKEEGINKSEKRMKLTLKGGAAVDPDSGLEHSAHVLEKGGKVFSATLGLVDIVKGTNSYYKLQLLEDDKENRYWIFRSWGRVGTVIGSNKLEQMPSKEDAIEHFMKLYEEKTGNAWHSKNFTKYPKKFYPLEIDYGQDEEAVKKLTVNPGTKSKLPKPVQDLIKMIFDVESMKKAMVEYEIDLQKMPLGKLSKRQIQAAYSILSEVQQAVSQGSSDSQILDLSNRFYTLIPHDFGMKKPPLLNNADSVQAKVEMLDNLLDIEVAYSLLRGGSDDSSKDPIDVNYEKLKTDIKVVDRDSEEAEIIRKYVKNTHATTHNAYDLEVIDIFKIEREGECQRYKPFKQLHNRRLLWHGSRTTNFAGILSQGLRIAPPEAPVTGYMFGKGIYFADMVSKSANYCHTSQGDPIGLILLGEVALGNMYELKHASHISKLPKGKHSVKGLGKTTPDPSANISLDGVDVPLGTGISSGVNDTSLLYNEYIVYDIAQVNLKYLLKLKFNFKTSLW

Biological target: OSBPL2 (human (in CRC cell lines; endogenous or overexpressed not stated)) (UniProt Q9H1P3)
Assay: co-IP; CRC cell lysate (RIPA lysis buffer), pre-cleared with IgG and protein A/G agarose beads 1 h at 4 °C, specific antibody (or IgG) with protein A/G magnetic beads overnight at 4 °C, three washes with PBS; SDS-PAGE

PARP1 (from UniProt P09874 1-1014) (enzyme)
binding: binds
